Patent US5260257A, “Thermal transfer sheet” (Dai Nippon Printing Co., Ltd., priority 1991, dated 1993)

Legend:
[1] = recording density (densitometer RD-918, Macbeth); conditions: 10 V, 4.0 msec
[2] = dye migration resistance of recorded image (70° C., 48 hr, sharpness and coloration of white paper); parameters: key: .circleincircle.: no change in the sharpness was observed and rubbing of the surface with white paper gave rise to no coloration of the white paper; .largecircle.: the sharpness of the image was slightly lost and the white paper was slightly colored; Δ: the sharpness of the image was lost and the white paper was colored; X: the image became unclear and the white paper was remarkably colored
[3] = Table A3, Comparative Examples A1-A6
[4] = Table B3, Comparative Examples B1-B6
[5] = Table C (C3), Comparative Examples C1-C6

| SMILES | Recording density ([1]; Table B2, dyes of Table B1) | Dye migration resistance ([2]; Table B2, dyes of Table B1) | Recording density ([1]; Table C2, dyes of Table C1) | Dye migration resistance ([2]; Table C2, dyes of Table C1) | also measured |
| --- | --- | --- | --- | --- | --- |
| CNc1ccc(NC)c2c1C(=O)c1ccccc1C2=O [Comp. Ex. A1, C.I. Disperse Blue 14, reference compound] | – | – | – | – | Recording density [1, 3]: 1.01; Recording density [1, 4]: 1.01; Recording density [1, 5]: 1.01; Dye migration resistance [2, 3]: X; Dye migration resistance [2, 4]: X; Dye migration resistance [2, 5]: X |
| CC(C)Nc1ccc(NC(C)C)c2c1C(=O)c1ccccc1C2=O [Comp. Ex. A2, C.I. Disperse Blue 134, reference compound] | – | – | – | – | Recording density [1, 3]: 1.15; Recording density [1, 4]: 1.15; Recording density [1, 5]: 1.15; Dye migration resistance [2, 3]: Δ; Dye migration resistance [2, 4]: Δ; Dye migration resistance [2, 5]: Δ |
| CNc1ccc(Nc2cccc(C)c2)c2c1C(=O)c1ccccc1C2=O [Comp. Ex. A3, C.I. Solvent Blue 63, reference compound] | – | – | – | – | Recording density [1, 3]: 2.13; Recording density [1, 4]: 2.13; Recording density [1, 5]: 2.13; Dye migration resistance [2, 3]: X; Dye migration resistance [2, 4]: X; Dye migration resistance [2, 5]: X |
| CNc1ccc(O)c2c1C(=O)c1c(O)ccc(NC)c1C2=O [Comp. Ex. A4, C.I. Disperse Blue 26, reference compound] | – | – | – | – | Recording density [1, 3]: 1.25; Recording density [1, 4]: 1.25; Recording density [1, 5]: 1.25; Dye migration resistance [2, 3]: Δ; Dye migration resistance [2, 4]: Δ; Dye migration resistance [2, 5]: Δ |
| CNc1ccc(N)c2c1C(=O)c1ccccc1C2=O [Comp. Ex. A5, C.I. Disperse Violet 4, reference compound] | – | – | – | – | Recording density [1, 3]: 1.05; Recording density [1, 4]: 1.05; Recording density [1, 5]: 1.05; Dye migration resistance [2, 3]: X; Dye migration resistance [2, 4]: X; Dye migration resistance [2, 5]: X |
| CCN(CC)c1ccc(N=C2C=C(NC(=O)c3ccccc3)C(=O)C(Cl)=C2C)c(C)c1 [Comparative Example A6, reference compound] | – | – | – | – | Recording density [1, 3]: 1.87; Dye migration resistance [2, 3]: Δ |
| CCN(CC)c1ccc(N=C2C=C(NC(=O)c3ccccc3)C(=O)C(Cl)=C2C)c(C)c1 [Comparative Example B6, reference compound] | – | – | – | – | Recording density [1, 4]: 1.87; Dye migration resistance [2, 4]: Δ |
| CCN(CC)c1ccc(N=C2C=C(NC(=O)c3ccccc3)C(=O)C(Cl)=C2C)c(C)c1 [Comparative Example C6, reference compound] | – | – | – | – | Recording density [1, 5]: 1.87; Dye migration resistance [2, 5]: Δ |
| CCN(CC)c1ccc(N=C2C=C(NC(=O)C3CC=CCC3)C(=O)C(Cl)=C2C)c(C)c1 (stereo not drawn) [Dye No. 1 in Table B1] | 1.83 | .largecircle. | – | – | – |
| CCN(CC)c1ccc(N=C2C=C(NC(=O)C3CC4C=CC3C4)C(=O)C(Cl)=C2C)c(C)c1 (stereo not drawn) [Dye No. 1 in Table C1] | – | – | 1.78 | .largecircle. | – |
| CCN(CCO)c1ccc(N=C2C=C(NC(=O)C3CC=CCC3)C(=O)C(Cl)=C2C)c(C)c1 (stereo not drawn) [Dye No. 2 in Table B1] | 1.80 | .largecircle. | – | – | – |
| CCN(CC)c1ccc(N=C2C=CC(=O)C(NC(=O)C3CC4C=CC3C4)=C2)c(C)c1 (stereo not drawn) [Dye No. 2 in Table C1] | – | – | 1.86 | Δ | – |
| CCN(CC)c1ccc(N=C2C=C(NC(=O)C3CC=CCC3)C(=O)C=C2NC(C)=O)c(C)c1 (stereo not drawn) [Dye No. 3 in Table B1] | 1.86 | .largecircle. | – | – | – |
| CCN(CCO)c1ccc(N=C2C=C(NC(=O)C3CC4C=CC3C4)C(=O)C(Cl)=C2C)c(C)c1 (stereo not drawn) [Dye No. 3 in Table C1] | – | – | 1.77 | .largecircle. | – |
| CCOc1cc(N(CC)CC)ccc1N=C1C=CC(=O)C(NC(=O)C2CC=CCC2)=C1 (stereo not drawn) [Dye No. 4 in Table B1] | 1.89 | .largecircle. | – | – | – |
| CCN(CC)c1ccc(N=C2C=C(NC(=O)C3CC4C=CC3C4)C(=O)C=C2NC(C)=O)c(C)c1 (stereo not drawn) [Dye No. 4 in Table C1] | – | – | 1.77 | .largecircle. | – |

| SMILES | Recording density ([1]; Table B2, dyes of Table B1) | Dye migration resistance ([2]; Table B2, dyes of Table B1) | Recording density ([1]; Table C2, dyes of Table C1) | Dye migration resistance ([2]; Table C2, dyes of Table C1) | also measured |
| --- | --- | --- | --- | --- | --- |
| CCC1=C(Cl)C(=O)C(NC(=O)C2CC=CCC2)=CC1=Nc1ccc(N(CC)CC)cc1C (stereo not drawn) [Dye No. 5 in Table B1] | 1.84 | .largecircle. | – | – | – |
| CCOc1cc(N(CC)CC)ccc1N=C1C=CC(=O)C(NC(=O)C2CC3C=CC2C3)=C1 (stereo not drawn) [Dye No. 5 in Table C1] | – | – | 1.80 | .largecircle. | – |
| CCN(CC)c1ccc(N=C2C=C(NC(=O)C3CC=CCC3)C(=O)C(Cl)=C2C)c(NC(C)=O)c1 (stereo not drawn) [Dye No. 6 in Table B1] | 1.72 | .largecircle. | – | – | – |
| CCN(CC)c1ccc(N=C2C=C(NC(=O)C3CC4C=CC3C4)C(=O)C(Cl)=C2C)cc1 (stereo not drawn) [Dye No. 6 in Table C1] | – | – | 1.82 | .largecircle. | – |
| CCN(CCCl)c1ccc(N=C2C=C(NC(=O)C3CC=CCC3)C(=O)C(Cl)=C2C)c(NC(=O)NC)c1 (stereo not drawn) [Dye No. 7 in Table B1] | 1.67 | .largecircle. | – | – | – |
| CCC1=C(Cl)C(=O)C(NC(=O)C2CC3C=CC2C3)=CC1=Nc1ccc(N(CC)CC)cc1C (stereo not drawn) [Dye No. 7 in Table C1] | – | – | 1.76 | .largecircle. | – |
| CCOc1cc(N(CC)CC)ccc1N=C1C=CC(=O)C(NC(=O)C2C=CCCC2)=C1 (stereo not drawn) [Dye No. 8 in Table B1] | 1.77 | .largecircle. | – | – | – |
| CCN(CC)c1ccc(N=C2C=C(NC(=O)C3CC4C=CC3C4)C(=O)C(Cl)=C2C)c(NC(C)=O)c1 (stereo not drawn) [Dye No. 8 in Table C1] | – | – | 1.72 | .largecircle. | – |
| CCOc1cc(N(CC)CCO)ccc1N=C1C=C(NC(=O)C2=CCCCC2)C(=O)C=C1NC(C)=O [Dye No. 9 in Table B1] | 1.72 | .largecircle. | – | – | – |
| CCN(CCCl)c1ccc(N=C2C=C(NC(=O)C3CC4C=CC3C4)C(=O)C(Cl)=C2C)c(NC(=O)NC)c1 (stereo not drawn) [Dye No. 9 in Table C1] | – | – | 1.66 | .largecircle. | – |
| CCN(CC)c1ccc(N=C2C=C(NC(=O)C3=CCC=CC3)C(=O)C(Cl)=C2C)c(C)c1 [Dye No. 10 in Table B1] | 1.88 | .largecircle. | – | – | – |
| CCOc1cc(N(CC)CCO)ccc1N=C1C=C(NC(=O)C2CC3C=CC2C3)C(=O)C=C1NC(C)=O (stereo not drawn) [Dye No. 10 in Table C1] | – | – | 1.70 | .largecircle. | – |
| CCN(CC)c1ccc(N=C2C=CC(=O)C(NC(=O)C3C=CCC=C3)=C2)c(NC(C)=O)c1 [Dye No. 11 in Table B1] | 1.86 | .largecircle. | – | – | – |
| CCN(CC)c1ccc(N=C2C=C(NC(=O)C3=CC4C=CC3C4)C(=O)C(Cl)=C2C)c(C)c1 (stereo not drawn) [Dye No. 11 in Table C1] | – | – | 1.75 | .largecircle. | – |
| CCN(CC)c1ccc(N=C2C=CC(=O)C(NC(=O)C3=CC4C=CC3C4)=C2)c(NC(C)=O)c1 (stereo not drawn) [Dye No. 12 in Table C1] | – | – | 1.74 | .largecircle. | – |
| CCN(CCC#N)c1ccc(N=C2C=C(NC(=O)C3CC=CC3)C(=O)C(Cl)=C2C)c(NS(C)(=O)=O)c1 [Dye No. 13 in Table B1] | 1.67 | .largecircle. | – | – | – |
